Measured values as given in publication PMC2743196.
Results are given in words; binding and its absence hold for the method and conditions named. In cells and extracts the contact can be indirect. Some entries that bind do so weakly or less than the wild type.

Sequences of proteins named here, by UniProt entry; tags and fusion partners are left off.
UniProt P97479: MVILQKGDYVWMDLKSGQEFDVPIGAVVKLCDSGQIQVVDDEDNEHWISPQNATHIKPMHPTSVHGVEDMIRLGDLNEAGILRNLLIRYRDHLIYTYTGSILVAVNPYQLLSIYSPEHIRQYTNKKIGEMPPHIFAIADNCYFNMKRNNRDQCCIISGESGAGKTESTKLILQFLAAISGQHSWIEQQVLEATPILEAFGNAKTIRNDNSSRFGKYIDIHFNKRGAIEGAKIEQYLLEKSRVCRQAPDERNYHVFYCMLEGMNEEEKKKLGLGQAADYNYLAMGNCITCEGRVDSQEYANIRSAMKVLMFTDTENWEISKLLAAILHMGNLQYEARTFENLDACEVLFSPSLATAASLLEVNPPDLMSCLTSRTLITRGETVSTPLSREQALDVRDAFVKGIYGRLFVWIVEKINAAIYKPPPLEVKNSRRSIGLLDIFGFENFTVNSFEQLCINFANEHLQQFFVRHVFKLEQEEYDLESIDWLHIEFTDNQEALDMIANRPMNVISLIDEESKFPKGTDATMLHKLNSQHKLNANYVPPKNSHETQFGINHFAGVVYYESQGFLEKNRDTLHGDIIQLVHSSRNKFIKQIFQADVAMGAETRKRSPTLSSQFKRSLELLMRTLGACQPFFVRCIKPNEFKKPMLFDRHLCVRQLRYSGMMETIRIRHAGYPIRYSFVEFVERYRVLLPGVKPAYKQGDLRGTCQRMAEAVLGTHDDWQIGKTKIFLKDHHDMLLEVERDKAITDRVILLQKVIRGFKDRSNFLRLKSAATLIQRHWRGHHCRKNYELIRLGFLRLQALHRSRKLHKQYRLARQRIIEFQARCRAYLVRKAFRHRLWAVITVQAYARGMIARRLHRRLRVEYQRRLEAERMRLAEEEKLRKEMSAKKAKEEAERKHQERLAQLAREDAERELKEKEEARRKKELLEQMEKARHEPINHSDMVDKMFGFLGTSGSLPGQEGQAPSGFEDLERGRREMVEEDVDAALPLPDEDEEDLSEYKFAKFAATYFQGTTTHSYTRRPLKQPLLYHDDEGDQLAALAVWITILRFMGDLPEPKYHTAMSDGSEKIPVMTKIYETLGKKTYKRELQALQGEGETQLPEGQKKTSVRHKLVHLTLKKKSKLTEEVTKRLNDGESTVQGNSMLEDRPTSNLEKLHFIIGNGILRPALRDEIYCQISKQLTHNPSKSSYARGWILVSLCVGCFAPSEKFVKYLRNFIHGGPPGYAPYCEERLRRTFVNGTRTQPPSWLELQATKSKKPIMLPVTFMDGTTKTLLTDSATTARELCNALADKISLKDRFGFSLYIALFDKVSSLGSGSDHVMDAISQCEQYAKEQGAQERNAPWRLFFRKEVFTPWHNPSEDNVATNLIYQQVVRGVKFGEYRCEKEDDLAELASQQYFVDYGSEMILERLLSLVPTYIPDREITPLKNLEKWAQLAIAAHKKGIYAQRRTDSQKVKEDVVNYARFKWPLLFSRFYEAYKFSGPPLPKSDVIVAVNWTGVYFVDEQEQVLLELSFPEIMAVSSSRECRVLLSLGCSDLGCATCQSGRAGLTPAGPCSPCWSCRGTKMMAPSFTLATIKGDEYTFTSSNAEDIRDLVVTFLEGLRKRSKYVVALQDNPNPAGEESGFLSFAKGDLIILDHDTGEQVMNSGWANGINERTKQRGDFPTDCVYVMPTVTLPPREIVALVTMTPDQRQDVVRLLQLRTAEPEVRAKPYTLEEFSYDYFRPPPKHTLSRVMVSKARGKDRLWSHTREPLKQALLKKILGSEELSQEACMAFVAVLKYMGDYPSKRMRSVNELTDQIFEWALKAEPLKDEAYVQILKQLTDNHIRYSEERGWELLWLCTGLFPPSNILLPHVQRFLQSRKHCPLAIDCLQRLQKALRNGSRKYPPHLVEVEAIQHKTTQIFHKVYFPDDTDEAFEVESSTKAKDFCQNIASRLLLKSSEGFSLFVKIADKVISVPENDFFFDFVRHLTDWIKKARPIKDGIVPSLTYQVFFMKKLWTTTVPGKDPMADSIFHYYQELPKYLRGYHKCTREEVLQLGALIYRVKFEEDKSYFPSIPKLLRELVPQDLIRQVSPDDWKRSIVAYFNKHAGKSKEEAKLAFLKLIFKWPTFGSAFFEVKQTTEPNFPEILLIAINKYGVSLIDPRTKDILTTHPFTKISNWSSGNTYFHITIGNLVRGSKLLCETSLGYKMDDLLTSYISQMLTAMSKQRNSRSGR

T1: twinfilin-2 (mouse (endogenous in inner ear sensory epithelia)) (UniProt Q9Z0P5)
T1 sequence: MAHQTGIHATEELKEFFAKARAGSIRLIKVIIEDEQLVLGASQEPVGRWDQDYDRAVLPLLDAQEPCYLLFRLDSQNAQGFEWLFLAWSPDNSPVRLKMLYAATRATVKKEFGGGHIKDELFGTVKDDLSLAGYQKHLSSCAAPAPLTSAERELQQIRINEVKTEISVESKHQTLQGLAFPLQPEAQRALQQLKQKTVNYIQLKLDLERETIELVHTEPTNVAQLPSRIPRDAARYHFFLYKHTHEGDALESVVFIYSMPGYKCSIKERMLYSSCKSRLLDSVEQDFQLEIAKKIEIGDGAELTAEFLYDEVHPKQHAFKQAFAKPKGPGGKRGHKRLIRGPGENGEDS


Assays:
[1] = biological target: T1, twinfilin-2 (mouse (endogenous in inner ear sensory epithelia)); assay: co-IP; lysate of freshly isolated inner ear sensory epithelia of wild type mice at P28; 50 mM Tris-HCl pH 7.0, 150 mM NaCl, 1% Triton-X 100, 2 mM EDTA; precleared, incubated overnight at 4°C with anti-myosinVIIa, anti-twinfilin-1 or anti-twinfilin-2 antibody and protein A-Sepharose; Western blot
[2] = biological target: myosinVIIa (mouse (endogenous in inner ear sensory epithelia)) (UniProt P97479); assay: as above

Row | Molecule | binding [1] | binding [2]
1 | myosinVIIa (from UniProt P97479 1-2215) | binds | –
2 | twinfilin-2 (protein, UniProt Q9Z0P5 1-349) MAHQTGIHATEELKEFFAKARAGSIRLIKVIIEDEQLVLGASQEPVGRWDQDYDRAVLPLLDAQEPCYLLFRLDSQNAQGFEWLFLAWSPDNSPVRLKMLYAATRATVKKEFGGGHIKDELFGTVKDDLSLAGYQKHLSSCAAPAPLTSAERELQQIRINEVKTEISVESKHQTLQGLAFPLQPEAQRALQQLKQKTVNYIQLKLDLERETIELVHTEPTNVAQLPSRIPRDAARYHFFLYKHTHEGDALESVVFIYSMPGYKCSIKERMLYSSCKSRLLDSVEQDFQLEIAKKIEIGDGAELTAEFLYDEVHPKQHAFKQAFAKPKGPGGKRGHKRLIRGPGENGEDS | – | binds
